From article PMC3870133
These are yes or no findings as the source states them, for the method shown. Binding seen in cells or lysates may run through a third protein. A result given as binding can be weak or reduced; the word gives no strength.

Chains of the proteins cited; added tags and fusions are not shown. Lines headed by an entry give the natural chain unless they say otherwise; changes in a name come on top.
UniProt P30561: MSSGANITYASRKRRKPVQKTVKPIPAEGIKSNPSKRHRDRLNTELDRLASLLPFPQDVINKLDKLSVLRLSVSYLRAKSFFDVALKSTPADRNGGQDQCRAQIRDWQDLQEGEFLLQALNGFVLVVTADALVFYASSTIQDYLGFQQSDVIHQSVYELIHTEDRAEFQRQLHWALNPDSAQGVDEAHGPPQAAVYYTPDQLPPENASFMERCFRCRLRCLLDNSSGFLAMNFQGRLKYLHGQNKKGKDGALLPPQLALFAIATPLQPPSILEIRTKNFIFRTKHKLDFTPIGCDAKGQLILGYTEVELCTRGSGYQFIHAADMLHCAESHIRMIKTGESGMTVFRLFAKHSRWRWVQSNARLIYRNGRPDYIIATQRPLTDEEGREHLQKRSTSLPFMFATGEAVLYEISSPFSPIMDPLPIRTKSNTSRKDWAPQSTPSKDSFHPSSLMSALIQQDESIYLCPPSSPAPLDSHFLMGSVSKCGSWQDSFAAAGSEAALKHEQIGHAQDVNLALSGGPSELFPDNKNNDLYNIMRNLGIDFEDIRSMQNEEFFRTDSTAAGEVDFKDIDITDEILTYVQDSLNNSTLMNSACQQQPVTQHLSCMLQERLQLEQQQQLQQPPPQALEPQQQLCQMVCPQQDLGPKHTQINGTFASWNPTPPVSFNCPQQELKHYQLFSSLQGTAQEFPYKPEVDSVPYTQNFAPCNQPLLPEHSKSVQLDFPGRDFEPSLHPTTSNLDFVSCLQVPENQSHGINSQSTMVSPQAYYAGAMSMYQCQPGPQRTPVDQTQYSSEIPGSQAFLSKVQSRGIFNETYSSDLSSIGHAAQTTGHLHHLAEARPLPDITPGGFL

Biological target: aryl-hydrocarbon receptor (AHR), endogenous (mouse (endogenous in Hepa1c1c7)) (UniProt P30561)
Assay: co-IP; wild type Hepa1c1c7 supernatant (500 μg) in TTLB, anti-AHR antibody or normal rabbit IgG, protein G beads; blot with anti-Mrpl40

B1: mitochondrial ribosomal protein L40 (Mrpl40) (protein, UniProt Q9Z2Q5 47-206)
chain: AEPLRKKKKVDPRKDQAAKDRLKKRIRKLEKASQELIPIEDFITPVRFLDKSRQRPQEEHSPEESERRALLLKRWALFKQQEHEMERDAIRSMLEAQQEALEELKLESAELYAEAIKRDTSLFPFEKEGPHYTPPISNYQAPEGRYNDITKVYTQVEFKR
binding: binds
